In PubChem BioAssay AID330 (DTP/NCI, 2004):
The list does not hold the whole screen: it is rich in T/C values a quarter to a half above the control, in often repeated tests (any T/C) and in doses without a T/C. Further doses and runs are listed elsewhere. T/C: endpoint of the treated group in % of that of the vehicle group. Some entries give survivors of the animals treated and no T/C: the source holds a T/C of zero for them, seemingly a mark for toxic or unscored doses. Some survivor counts are full or nearly so, which does not show that the dose was tolerated: the source hardly ever lists a survival T/C far under the control, and the zero likely stands for such cases as well. Counts of survivors are from the toxicity check (mostly the fifth day) where no day follows; animals may have died later. Schedules are NCI's codes, read here as Q, the interval in days (D) or hours (H), X, the number of doses. Some entries hold several experiments; the values are given in rising order. Where survival is the endpoint, the PubChem record calls one and a half times the control and up active, and a quarter to a half above the control has no call in these data; cut-offs in other NCI protocols can differ. Some T/C values carry the count of animals alive at the toxicity check (mostly the fifth day); without a count, all were alive then.

Tested on: P388 leukemia ip, CD2F1 mice, survival T/C
Experiment: NCI In Vivo Anticancer Drug Screen. Data for tumor model P388 Leukemia (intraperitoneal) in CD2F1 (CDF1) mice
Settings: T/C endpoint: median survival time, higher T/C = longer survival
[1] = dose: 25.0 mg/kg/injection, schedule: Q01DX005 (ip), vehicle: Klucel (hydroxypropylcellulose) (HPC)
[2] = dose: 50.0 mg/kg/injection, schedule: Q01DX005 (ip), vehicle: Klucel (hydroxypropylcellulose) (HPC)
[3] = dose: 100.0 mg/kg/injection, schedule: Q01DX005 (ip), vehicle: Klucel (hydroxypropylcellulose) (HPC)
[4] = dose: 200.0 mg/kg/injection, schedule: Q01DX005 (ip), vehicle: Klucel (hydroxypropylcellulose) (HPC)
[5] = dose: 200.0 mg/kg/injection, schedule: Q01DX009 (ip), vehicle: saline with Tween-80
[6] = dose: 400.0 mg/kg/injection, schedule: Q04DX003 (ip), vehicle: saline with Tween-80
[7] = dose: 200.0 mg/kg/injection, schedule: Q01DX005 (ip), vehicle: saline with Tween-80

With `CCC(=O)CC(O)CC(C)CC(NC(=O)C1CC(C)CN1C(=O)/C=C/C(C)CC)C(=O)NC(C(=O)NC(C)(C)C(=O)NC(CC(C)C)C(=O)NC(CC(C)C)C(=O)NC(C)(C)C(=O)NC(C)(C)C(=O)NCCC(=O)NC(C)CN(C)C)C(O)C(C)C` (stereo not given) the survivor count (dose: 0.75 mg/kg/injection, schedule: Q01DX005 (ip), vehicle: saline + alcohol) was 0 of 6, the survivor count (dose: 1.5 mg/kg/injection, schedule: Q01DX005 (ip), vehicle: saline + alcohol) was 0 of 6 and the survivor count (dose: 3.0 mg/kg/injection, schedule: Q01DX005 (ip), vehicle: saline + alcohol) was 0 of 6. For the same compound, the survivor count (dose: 6.0 mg/kg/injection, schedule: Q01DX005 (ip), vehicle: saline + alcohol) was 0 of 6 and the survivor count (dose: 12.0 mg/kg/injection, schedule: Q01DX005 (ip), vehicle: saline + alcohol) was 0 of 6.

In the case of `COC(=O)C(CSC(c1ccccc1)(c1ccccc1)c1ccccc1)NC(=O)CCNC(=O)OCc1ccccc1` (stereo not given), the survivor count (dose: 100.0 mg/kg/injection, schedule: Q01DX009 (ip), vehicle: other) was 6 of 6.

For `COc1cc(/C=C/C(=O)C(CN(C)C)CN(C)C)cc(OC)c1OC`, the survivor count [1] was 0 of 6, the survivor count [2] was 0 of 6 and the survivor count [3] was 0 of 6. The survivor count [4] was 0 of 6.

For `O=NNc1ccc(Cl)cn1`, the T/C (dose: 3.12 mg/kg/injection, schedule: Q01DX009 (ip), vehicle: water) was 128 % of control, the T/C (dose: 6.25 mg/kg/injection, schedule: Q01DX009 (ip), vehicle: water) was 142 and 144 % of control and the T/C (dose: 12.5 mg/kg/injection, schedule: Q01DX009 (ip), vehicle: water) was 144 % of control. For the same compound, the survivor count (dose: 25.0 mg/kg/injection, schedule: Q01DX009 (ip), vehicle: water) was 2 of 6 and 6 of 6.

In the case of `CN(C)/C=C(\C#N)C=O`, the survivor count (dose: 75.0 mg/kg/injection, schedule: Q01DX009 (ip), vehicle: saline sonified) was 2 of 6.

In the case of `Cc1ccc(/C=C/C(=N/NC(=O)c2ccccc2)C(C)CN(C)C)cc1` (stereo not given), the survivor count (dose: 240.0 mg/kg/injection, schedule: Q01DX005 (ip), vehicle: saline) was 0 of 6.

With `COc1ccc(Cc2c3ccccc3cc[n+]2C)cc1Oc1ccc(Cc2c3ccccc3cc[n+]2C)cc1` the survivor count (dose: 3.13 mg/kg/injection, schedule: Q01DX009 (ip), vehicle: saline with Tween-80) was 0 of 6, the survivor count (dose: 6.25 mg/kg/injection, schedule: Q01DX009 (ip), vehicle: saline with Tween-80) was 0 of 6 and the survivor count (dose: 12.5 mg/kg/injection, schedule: Q01DX009 (ip), vehicle: saline with Tween-80) was 0 of 6. The survivor count (dose: 25.0 mg/kg/injection, schedule: Q01DX009 (ip), vehicle: saline with Tween-80) was 0 of 6, the survivor count (dose: 50.0 mg/kg/injection, schedule: Q01DX009 (ip), vehicle: saline with Tween-80) was 0 of 6 and the survivor count (dose: 100.0 mg/kg/injection, schedule: Q01DX009 (ip), vehicle: saline with Tween-80) was 0 of 6. For the same compound, the survivor count [5] was 0 of 6.

With `COC1CC(OC2CCC3(C)C(=CCC4C3C(OC(C)=O)C(OC(=O)CC(C)C)C3(C)C(C(C)=O)CCC43O)C2)OC(C)C1OC1CC(OC)C(OC2CC(OC)C(OC3OC(C)C(O)C(OC)C3O)C(C)O2)C(C)O1` (stereo not given) the survivor count (dose: 16.5 mg/kg/injection, schedule: Q01DX005 (ip), vehicle: Klucel (hydroxypropylcellulose) (HPC)) was 5 of 6 and the survivor count (dose: 33.0 mg/kg/injection, schedule: Q01DX005 (ip), vehicle: Klucel (hydroxypropylcellulose) (HPC)) was 0 of 6.

In the case of `CN1C(=O)Cc2[nH]ccc2C1=O`, the survivor count (dose: 100.0 mg/kg/injection, schedule: Q04DX003 (ip), vehicle: saline with Tween-80) was 0 of 6, the survivor count (dose: 200.0 mg/kg/injection, schedule: Q04DX003 (ip), vehicle: saline with Tween-80) was 0 of 6 and the survivor count [6] was 0 of 6.

With `[Cl][Ru]([Cl])([Cl])([Cl])([Cl])[Cl]` the T/C (dose: 12.5 mg/kg/injection, schedule: Q04DX003 (ip), vehicle: water) was 129 % of control, the T/C (dose: 25.0 mg/kg/injection, schedule: Q04DX003 (ip), vehicle: saline) was 136 % of control and the T/C (dose: 25.0 mg/kg/injection, schedule: Q04DX003 (ip), vehicle: water) was 138 % of control. The T/C (dose: 50.0 mg/kg/injection, schedule: Q04DX003 (ip), vehicle: saline) was 127 % of control, the T/C (dose: 50.0 mg/kg/injection, schedule: Q04DX003 (ip), vehicle: water) was 138 % of control and the T/C (dose: 100.0 mg/kg/injection, schedule: Q04DX003 (ip), vehicle: saline) was 127 % of control. The survivor count (dose: 100.0 mg/kg/injection, schedule: Q04DX003 (ip), vehicle: water) was 3 of 6, the survivor count (dose: 200.0 mg/kg/injection, schedule: Q04DX003 (ip), vehicle: saline) was 3 of 3 and the survivor count (dose: 200.0 mg/kg/injection, schedule: Q04DX003 (ip), vehicle: water) was 0 of 6. The survivor count (dose: 400.0 mg/kg/injection, schedule: Q04DX003 (ip), vehicle: saline) was 3 of 3.

With `CCCCCCCCCC[N+]1([O-])CCOCC1` the survivor count (dose: 200.0 mg/kg/injection, schedule: Q01DX009 (ip), vehicle: saline) was 2 of 6.

For `CCOP(=S)(Oc1cnn(C)c(=O)c1OC)OC(C)C` (stereo not given), the survivor count (dose: 6.25 mg/kg/injection, schedule: Q01DX005 (ip), vehicle: saline with Tween-80) was 4 of 6, the survivor count (dose: 12.5 mg/kg/injection, schedule: Q01DX005 (ip), vehicle: saline with Tween-80) was 0 of 6 and the survivor count (dose: 25.0 mg/kg/injection, schedule: Q01DX005 (ip), vehicle: saline with Tween-80) was 0 of 6. For the same compound, the survivor count (dose: 50.0 mg/kg/injection, schedule: Q01DX005 (ip), vehicle: saline with Tween-80) was 0 of 6, the survivor count (dose: 100.0 mg/kg/injection, schedule: Q01DX005 (ip), vehicle: saline with Tween-80) was 0 of 6 and the survivor count [7] was 0 of 6.

With `Cc1ccc2nc(N/N=C/c3cccc(C)n3)cc(C)c2c1` the survivor count [7] was 0 of 6.

For `CCOC(=O)c1[nH]cnc1/N=N/N(C)CCO`, the T/C (dose: 100.0 mg/kg/injection, schedule: Q01DX009 (ip), vehicle: saline sonified) was 131 % of control, the T/C (dose: 200.0 mg/kg/injection, schedule: Q01DX009 (ip), vehicle: saline sonified) was 136 % of control and the T/C (dose: 400.0 mg/kg/injection, schedule: Q01DX009 (ip), vehicle: saline sonified) was 140 % of control.

With `CCOC(=O)CCC(C)(C#N)C(C#N)C(=O)OCC` (stereo not given) the survivor count [5] was 6 of 6.

In the case of `CCN(CCC#N)C(=O)c1cccc([N+](=O)[O-])c1`, the survivor count (dose: 240.0 mg/kg/injection, schedule: Q01DX005 (ip), vehicle: Klucel (hydroxypropylcellulose) (HPC)) was 1 of 6.

With `O=S(=O)(c1cccc(N=C=S)c1)c1cccc(N=C=S)c1` the T/C [1] was 132 % of control [5 of 6 alive], the T/C [2] was 131 % of control and the survivor count [2] was 0 of 6. For the same compound, the survivor count [3] was 0 of 6 and the survivor count [4] was 0 of 6.

With `CC(C)(C)CC(C)(C)C/C=C/C[N+](C)(C)C/C=C/CC(C)(C)CC(C)(C)C` the survivor count (dose: 50.0 mg/kg/injection, schedule: Q04DX002 (ip), vehicle: saline) was 2 of 6, the survivor count (dose: 100.0 mg/kg/injection, schedule: Q04DX002 (ip), vehicle: saline) was 0 of 6 and the survivor count (dose: 200.0 mg/kg/injection, schedule: Q04DX002 (ip), vehicle: saline) was 1 of 6. For the same compound, the survivor count (dose: 400.0 mg/kg/injection, schedule: Q04DX002 (ip), vehicle: saline) was 1 of 6.

For `CS(=O)(=O)O/C=C1\C(=O)OC2CCCCC12` (stereo not given), the T/C (dose: 150.0 mg/kg/injection, schedule: Q01DX009 (ip), vehicle: distilled water + Tween-80) was 125 % of control and the T/C (dose: 300.0 mg/kg/injection, schedule: Q01DX009 (ip), vehicle: distilled water + Tween-80) was 125 % of control.

`CCCCCc1ccccc1` was tested, and the survivor count (dose: 400.0 mg/kg/injection, schedule: Q01DX009 (ip), vehicle: saline with Tween-80) was 3 of 6.

In the case of `O=C1C2=C(Nc3cc([N+](=O)[O-])ccc3N2)OC1c1c[nH]c2ccc(COc3ccccc3)cc12` (stereo not given), the survivor count (dose: 240.0 mg/kg/injection, schedule: Q01DX005 (ip), vehicle: saline with Tween-80) was 6 of 6.

With `Cc1cc(C)cc(C(C)(C)C)c1` the survivor count [6] was 4 of 6.
